No constants are given. Whether binding was seen depends on the method and setting. Binding seen in cells or lysates may run through a third protein. Binding calls can cover weak binding; strength is not graded here. Tags and fused reporters may be left off the sequences shown.
Assays:
[1] = biological target: T1, GST-nesprin-2 SR51-53 (amino acids 6018-6354) (human) (UniProt Q8WXH0); experiment: pull-down; GST-nesprin-2 beads incubated with GFP-tagged FHL-2 proteins; Western blot
T1 sequence: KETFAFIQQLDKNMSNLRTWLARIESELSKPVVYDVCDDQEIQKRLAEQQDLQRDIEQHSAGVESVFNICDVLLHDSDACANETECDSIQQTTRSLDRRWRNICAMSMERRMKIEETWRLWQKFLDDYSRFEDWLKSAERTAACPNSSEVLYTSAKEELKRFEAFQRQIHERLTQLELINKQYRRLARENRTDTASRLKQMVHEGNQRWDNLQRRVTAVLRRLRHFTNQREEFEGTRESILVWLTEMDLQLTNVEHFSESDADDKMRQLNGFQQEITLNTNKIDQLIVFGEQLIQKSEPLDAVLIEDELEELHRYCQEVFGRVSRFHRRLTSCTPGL

GFP-tagged FHL-2 WT = biological target: T2, GFP-tagged FHL-2 WT (UniProt Q14192); experiment: co-IP; Flag-tagged nesprin-2 SR51-53 and GFP-FHL-2 overexpressed in C2C12 myoblasts; IP with GFP antibody; blot with Flag and Nes-2N3 antibodies
T2 sequence: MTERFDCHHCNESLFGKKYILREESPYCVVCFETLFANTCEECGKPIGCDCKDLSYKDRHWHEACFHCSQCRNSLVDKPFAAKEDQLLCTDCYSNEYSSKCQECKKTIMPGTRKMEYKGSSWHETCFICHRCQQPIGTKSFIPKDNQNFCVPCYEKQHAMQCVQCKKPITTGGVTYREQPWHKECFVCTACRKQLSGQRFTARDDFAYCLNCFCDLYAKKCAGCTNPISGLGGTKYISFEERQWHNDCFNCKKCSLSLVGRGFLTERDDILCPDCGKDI

| binding [1] | binding (GFP-tagged FHL-2 WT) | Substance |
| --- | --- | --- |
| binds | – | GFP-tagged FHL-2 LIM-2 domain (domain or fragment) |
| – | binds | FLAG-tagged nesprin-2 SR51-53 (human) (domain or fragment) |

Reference: PMC11078644, “Nesprin-2 is a novel scaffold protein for telethonin and FHL-2 in the cardiomyocyte sarcomere” (The Journal of Biological Chemistry, 2024)
